Reference: US11573231B2, “Biomarker of aging” (Max-Planck-Gesellschaft zur Forderung der Wissenschaften …, priority 2017, dated 2023)
For at least one compound, name, drawing or mass did not settle the structure.

Key:
D. melanogaster [1] = assay: Nucleolar size in Drosophila intestine and fat body (Fibrillarin immunofluorescence); assay type: in vivo, Drosophila melanogaster; conditions: 200 μM in food for 10 days
D. melanogaster [2] = assay: Drosophila western blots for fibrillarin and ribosomal proteins; assay type: in vivo, Drosophila melanogaster; conditions: flies, western blot

Question: Which results are given for `CO[C@H]1C[C@@H]2CC[C@@H](C)[C@@](O)(O2)C(=O)C(=O)N2CCCC[C@H]2C(=O)O[C@H]([C@H](C)C[C@@H]2CC[C@@H](O)[C@H](OC)C2)CC(=O)[C@H](C)/C=C(\C)[C@@H](O)[C@@H](OC)C(=O)[C@H](C)C[C@H](C)/C=C/C=C/C=C/1C` [Rapamycin]?
Answer: nucleolar size (D. melanogaster [1]): small nucleoli; nucleolar size (D. melanogaster [1]; listed as rapamycin): smaller nucleoli; RPS6 levels (D. melanogaster [2]): did not significantly change; RPS15 levels (D. melanogaster [2]): did not significantly change; levels of fibrillarin (D. melanogaster [2]): reduced levels
